Source: PubChem BioAssay AID1671195 (Yale University, 2021)
This is a random part of about 22,000 reagents. About 1,510 of all reagents (6.9%) count as active. 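Active includes knockdowns raising or lowering LDL uptake; positive z-scores mean more uptake, negative mean less.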 No sequences are given here.

Purpose: 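Regulators of LDL receptor activity judged by labelled LDL uptake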 (primary screen)
Cell system: human Huh7 hepatoma cells
Knock-down reagent: siRNA pool against human genes, 18 nM
Duration: about 2 to 2.5 days of knockdown, then 8 h LDL uptake
Conditions: DiI-labelled LDL at 30 µg/ml for 8 h, in lipoprotein-deficient serum medium
Measured: 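Fluorescent LDL signal imaged in cells, scaled to the plate median, robust z-score for each replicate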
Reading the numbers: robust z-score: higher = more LDL uptake after knockdown
Active means: 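a gene counts as active if at least two replicate z-scores exceed ±2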

target gene | robust z-score, replicate 1 | robust z-score, replicate 2 | robust z-score, replicate 3 | outcome
VEGFB (vascular endothelial growth factor B) | 0.784 | 0.131 | 0.115 | inactive
CDSN (corneodesmosin) | 0.667 | -0.228 | 2.98 | inactive
SCAND3 (SCAN domain containing 3) | -0.402 | -1.65 | -1.18 | inactive
GAPDHP72 (glyceraldehyde-3-phosphate dehydrogenase pseudogene 72) | -1.04 | -1.18 | -1.48 | inactive
AMMECR1L (AMMECR1 like) | -1.9 | -1.08 | -1.77 | inactive
OR10G7 (olfactory receptor family 10 subfamily G member 7) | -0.836 | -0.862 | -0.518 | inactive
TNFRSF11A (TNF receptor superfamily member 11a) | 1.9 | 1.22 | 0.908 | inactive
RAD21 (RAD21 cohesin complex component) | -1.14 | -2.03 | -0.933 | inactive
PGAP6 (post-GPI attachment to proteins 6) | 0.0735 | 0.971 | 1.23 | inactive
TBC1D2B (TBC1 domain family member 2B) | 0.331 | 0.732 | 0.752 | inactive
CARD6 (caspase recruitment domain family member 6) | -0.818 | -0.396 | -0.779 | inactive
KRTAP10-11 (keratin associated protein 10-11) | 1.1 | 0.11 | 0.435 | inactive
TSLIG3C (tRNA splicing ligase complex subunit 3C) | -1.2 | -0.318 | -1.02 | inactive
OR51F1 (olfactory receptor family 51 subfamily F member 1) | -0.665 | -0.396 | -0.713 | inactive
GIT1 (GIT ArfGAP 1) | -1.13 | -1.95 | -0.792 | inactive
PEBP1 (phosphatidylethanolamine binding protein 1) | 0.439 | -0.0623 | 1.01 | inactive
RP1 (RP1 axonemal microtubule associated) | 0.73 | 1.02 | 1.13 | inactive
CST8 (cystatin 8) | -0.896 | -1.1 | -1.25 | inactive
NEK11 (NIMA related kinase 11) | 1.76 | 2.44 | 1.4 | inactive
PMVK (phosphomevalonate kinase) | 0.486 | 1.03 | 0.346 | inactive
EFHD1 (EF-hand domain family member D1) | 0.87 | 0.419 | 0.0477 | inactive
NDUFS7 (NADH:ubiquinone oxidoreductase core subunit S7) | -0.689 | -0.581 | -0.49 | inactive
CTRL (chymotrypsin like) | 0.188 | -0.0809 | 0.0448 | inactive

Reprinted from the listing for reference:
target gene | robust z-score, replicate 1 | robust z-score, replicate 2 | robust z-score, replicate 3 | outcome
TBC1D2B (TBC1 domain family member 2B) | 0.331 | 0.732 | 0.752 | inactive
CARD6 (caspase recruitment domain family member 6) | -0.818 | -0.396 | -0.779 | inactive
KRTAP10-11 (keratin associated protein 10-11) | 1.1 | 0.11 | 0.435 | inactive
TSLIG3C (tRNA splicing ligase complex subunit 3C) | -1.2 | -0.318 | -1.02 | inactive

More entries follow.
target gene | robust z-score, replicate 1 | robust z-score, replicate 2 | robust z-score, replicate 3 | outcome
LOC441920 (retired record) | -0.913 | -0.924 | -0.843 | inactive
SEC31B (SEC31 homolog B, COPII component) | 0.772 | 1.03 | -0.438 | inactive
ZFAT (zinc finger and AT-hook domain containing) | -0.591 | -1.19 | -1.11 | inactive
SLC38A12 | -0.174 | 0.00911 | -0.219 | inactive
CLPTM1L (CLPTM1 like) | -0.342 | 0.224 | 0.317 | inactive
SLC16A11 | 1.08 | 1.68 | 1.59 | inactive
LRRN4 (leucine rich repeat neuronal 4) | 1.63 | 1.16 | 1.04 | inactive
NLRP3 (NLR family pyrin domain containing 3) | 0.0479 | -1.03 | -0.8 | inactive
CKMT2 (creatine kinase, mitochondrial 2) | -0.738 | -0.564 | 0.0872 | inactive
BCCIP (BRCA2 and CDKN1A interacting protein) | -0.592 | 0.734 | -1.24 | inactive
RUFY4 (RUN and FYVE domain containing 4) | -0.459 | -0.388 | -0.528 | inactive
LOC164036 (retired record) | 0.723 | 0.988 | 1.87 | inactive
MYL12BP2 (MYL12B pseudogene 2) | 2.1 | -0.0138 | 0.975 | inactive
RIDA (reactive intermediate imine deaminase A) | -0.528 | -1.52 | -0.877 | inactive
TMEM71 (transmembrane protein 71) | -0.852 | 0.282 | -0.285 | inactive
LOC441909 (retired record) | 0.0175 | 0.569 | 0.321 | inactive
UBE2E3 (ubiquitin conjugating enzyme E2 E3) | -0.00154 | -1.07 | -0.701 | inactive
NID2 (nidogen 2) | 0.136 | -0.11 | -0.746 | inactive
PATJ (PATJ crumbs cell polarity complex component) | -0.0059 | 1.43 | 1.18 | inactive
ZNF850 (zinc finger protein 850) | 0.481 | 0.931 | 0.0813 | inactive
IDH2 (isocitrate dehydrogenase (NADP(+)) 2) | 0.228 | -0.204 | -0.15 | inactive
IL26 (interleukin 26) | -0.566 | -1.74 | -1.32 | inactive
COPA (coat protein complex I subunit alpha) | -1.29 | -1.95 | -2.11 | active
RUVBL1 (RuvB like AAA ATPase 1) | 0.689 | 0.99 | -0.0369 | inactive
P2RX2 (purinergic receptor P2X 2) | -1.19 | -1.02 | -1.47 | inactive
LOC142937 (retired record) | -0.0172 | -0.944 | -0.116 | inactive
FNDC5 (fibronectin type III domain containing 5) | 0.684 | 0.118 | 0.335 | inactive
APLF (aprataxin and PNKP like factor) | -0.811 | -1.53 | -0.992 | inactive
MTBP (MDM2 binding protein) | -0.474 | -0.22 | -1.17 | inactive
RIMS4 (regulating synaptic membrane exocytosis 4) | 0.0548 | -0.528 | -0.493 | inactive
LOC442427 (putative UPF0607 protein ENSP00000381418) | 0.319 | 0.628 | 0.472 | inactive
OAS1 (2'-5'-oligoadenylate synthetase 1) | -0.294 | -1.81 | -1.26 | inactive
MRPL9 (mitochondrial ribosomal protein L9) | 0.619 | 0.197 | -0.0779 | inactive
LOC400050 (retired record) | 0.454 | 0.0881 | 0.375 | inactive
FAM156A (family with sequence similarity 156 member A) | 1.72 | 1.14 | 2.15 | inactive
LAPTM5 (lysosomal protein transmembrane 5) | -0.979 | -0.919 | -0.996 | inactive
H2AC14 (H2A clustered histone 14) | 2.28 | 5.33 | 3.33 | active
HOXD8 (homeobox D8) | -0.788 | -0.537 | 0.0836 | inactive
LOC440790 (retired record) | -0.259 | -0.0298 | -0.0593 | inactive
PSMD11 (proteasome 26S subunit, non-ATPase 11) | -0.829 | -0.849 | -1.42 | inactive
MRE11 (MRE11 double strand break repair nuclease) | 0.352 | 0.599 | 0.077 | inactive
ARMH4 (armadillo like helical domain containing 4) | 0.452 | -0.519 | 0.365 | inactive
IQGAP3 (IQ motif containing GTPase activating protein 3) | 0.343 | 0.813 | 0.813 | inactive
ZNF479 (zinc finger protein 479) | 1.01 | 0.657 | 1.09 | inactive
LOC389116 (retired record) | -0.624 | -0.908 | -0.957 | inactive
